The record followed here is paper PMC7579878, “Unannotated single nucleotide polymorphisms in the TATA box of erythropoiesis genes show in vitro positive involvements in cognitive and mental disorders”.

By UniProt entry, the sequences of proteins in these tests, tags left out.
UniProt P20226, whole entry: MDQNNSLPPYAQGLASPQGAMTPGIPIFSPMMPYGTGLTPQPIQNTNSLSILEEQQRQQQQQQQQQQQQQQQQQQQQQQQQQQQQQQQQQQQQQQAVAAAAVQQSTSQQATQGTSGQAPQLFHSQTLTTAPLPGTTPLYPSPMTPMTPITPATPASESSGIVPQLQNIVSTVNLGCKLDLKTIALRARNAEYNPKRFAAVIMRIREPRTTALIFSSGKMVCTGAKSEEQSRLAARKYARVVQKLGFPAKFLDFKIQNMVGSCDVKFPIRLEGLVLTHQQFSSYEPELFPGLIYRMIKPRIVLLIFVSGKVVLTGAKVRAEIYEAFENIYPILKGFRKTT

pKd: −log10 of the molar value. The exact form of at least one protein or probe is not confirmed.

For the data set, the target named is TATA-binding protein (hTBP) (Homo sapiens) (UniProt P20226). The data set is described as follows: EMSA (kinetic, kd/ka). As to conditions: EMSA with 32P-labelled 26 bp duplexes; binding buffer; recombinant protein; residues 1-339; label: 32P (both strands).

In the case of “CACGTACATATTTTTTGTCTGCTACG (double strand) [EPOR rs567946217:A (-31C>A, ODN 8)]”, the pKd was 7.68.
